Experimental data as given in PMC11444770, “Moesin contributes to heat shock gene response through direct binding to the Med15 subunit of the Mediator complex in the nucleus” (Open Biology, 2024).
Results are given in words; binding and its absence hold for the method and conditions named. Binding seen in cells or lysates may run through a third protein. These calls come from enrichment with a bait or labelling near it, and not all partners need be listed.

Protein sequences, listed by entry. Tags and fused reporters are not part of them.
UniProt P46150: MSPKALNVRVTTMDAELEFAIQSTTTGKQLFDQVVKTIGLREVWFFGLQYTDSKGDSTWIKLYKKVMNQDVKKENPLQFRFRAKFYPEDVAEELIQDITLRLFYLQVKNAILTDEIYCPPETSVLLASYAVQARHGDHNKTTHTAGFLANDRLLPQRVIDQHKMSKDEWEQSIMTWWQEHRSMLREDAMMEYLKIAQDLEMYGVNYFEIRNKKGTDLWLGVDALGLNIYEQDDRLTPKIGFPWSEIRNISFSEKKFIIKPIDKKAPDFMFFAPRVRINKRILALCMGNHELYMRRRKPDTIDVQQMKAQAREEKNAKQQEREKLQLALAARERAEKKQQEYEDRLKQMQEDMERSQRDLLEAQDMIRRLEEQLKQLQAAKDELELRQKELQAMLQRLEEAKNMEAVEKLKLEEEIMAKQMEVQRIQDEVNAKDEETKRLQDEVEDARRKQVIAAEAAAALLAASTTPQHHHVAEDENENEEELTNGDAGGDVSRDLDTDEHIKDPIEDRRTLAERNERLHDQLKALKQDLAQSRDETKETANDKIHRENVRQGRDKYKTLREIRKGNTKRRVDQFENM

B1: Med15 (endogenous, S2R+ nuclear fraction) (protein, UniProt Q9Y149 1-749)
chain: MTEDWQSQKFRQNVISKIHDLLPPNAQDQTKNAGVMENHIFRKSRTKDEYLGLVAKLFMHYKDMSRKSQQQQQQQQQQGGPPPNAEMGGGQNMMQDPLNALQNLASQGNRNPQMMPMGAGGGAPVPGGPGTASNLLQSLNQQRPGQQQMQPMSNIRGQMPMGAGGAGAQQMMQVQQMQQGGNAPGVMNVMGAGGGQNQGQIVGNPGQQMGVGVGMPNQMVGPGPNSGPAVGGAGGPNAAPGAGGPGPNQMQGGPMNVNAMQQMPPMQQIQQNQLGMGMNPMMRMGQGNGMGGPQGMPGQGMQGMPQGPHNVVGGPAGQQQVGGAGLPPNAVQQGGMNPMGGMGVNMPPNLQQKPNMPMGQAGQMFPGNRGGVGVGGQQPGQPFMRSSPSPADAQQLQQQAQLQQMQQQQQQLVVGNQTPTQQPPTPQMPTPNMIPSPALVPQSSPQMMQMQNSQRNIRQQSPSASINTPGQVTGNSPFNPQEEALYREKYKQLTKYIEPLKRMLAKISNDGTNVEKMTKMSKLLEILCNPTQRVPLETLLKCEKALEKMDLISYSGQQFGKSSNPLLEVINTTLQSPVANHTLYRTFRPTLELLFGTDITAPVPAKRPRVEEKSTSFEQEVPHVLQGEIARLDTKFKVKLDTTSQINNKAIRLICCLDDKRLPSVPPVSVSVPEEYPWQAPDCSLAEQEYSATPFLQTVQQALIARISKLPKNYSLSHLLDTWEMAVRQACSPQSKPRAVCELSTLLGV
B2: Med23 (endogenous, S2R+ nuclear fraction) (protein, UniProt Q9W1X7 1-1439)
chain: METQVIDTVNEFLKVDSLDEAFVSVIVFKPNTEQERATRFANDLVTAFGNVAQENREQVLRLYLLRAAGASGYHIKVLMAALVKLVDAHVITARMLCDKVLMCEKLDFEHRTFWIESFRLIKRVIVQVDYKGVREIMKVCRDKAQWFPLNVNVTYMPQLLAVEDILRFIFDRNNCLLPAYFIANEIMRPFPYHWKLNRLMTDFVEEFRTTAQMVSIIGHASMLPIVEHFGYADHMMNSWRLDHNTLKFNFKGSLPYEPELLEEQKPLLRYVLEQPYSREMVSQMLNLQKHQKQRYNALEEQLVNLIVQAMEMTEANDATAGSGFNSSDEQITPYEWMWLHLSSQLIYFVLFQFVSFMHIVLALHEKLSKLELRKGRDQLMWILLQFISGSIQKNPITNFLPVFRLFDLLYPELEPLKLPDINKSSMVRHMAPICVWIHLMKKARVENMNITRPLPIALKNHYDFLQHLVTANTMMNMTLGNDFRIILICNAYSTNQEYFGRPMGLLLDALNGTSKSPNGGQIPAVTFSVTVLDSLTVHSKMSLIHSFVTQMLKQAQSKGQVPAAALLETYARLLVYTEIESLGIKGFLSQLMPTVFKNHAWAMLHTLMEMFSYRLHHVPTHYRVQLLSLLHSLSSVPQTNKMQLNLCFESTALRLITSIGSAEFQPQFSRYFNDKSPGAVASNESEELNRVLILTLARSMHVHGGGDEMQGWCKDFLSNIIQHTPHSWPMHSLACFPPALNEYFTQNNQPPENKQQLKKAVEEEYRTWTSMTNENDIIAHFLRPTTNPLFLCLLFKIIWETENISPVAYKILEGISARALSTHLRKFCDYLVAEVASSSDGRDFIHKCVDTINNMIWKFNVVTIDRVVLCLALRTHEGNEAQVCFLIIQLLLLKASELRNRVQEFCKDNNPDHWKQSNWQDKHLSFHQKYPEKFALDESASQIPLPVYFSNVCLRFLPVLDVVVHRFIELTITNVHQILGFILDHLSILYKFHDRPITYLYNTLHYYERILRDRPALKKKLVGAITSAFSEIRPPNWSVSEPYKVYLQSQDSLWTPELSYYMSLIRRLADTISGKNVFYSTDWRFNEFPNAPTHALYVTCVELLGLPVAPPLVASNLIDVIVSGYAVIPQKDIHSYINAVGIVLAALPEPYWSGIYDRLQDMLNTPNMLNWTYRFNAFELFNFKTVREAMLEKTYAVVLAVAHSVFHHMGAFKLAAMTRYLKEKLKPCVRTEQQLLYLCHVFGPFLQRIELEKPNAVAGIAVLLYEILEIVDKHHGPKPLQYMDQICDFLYHIKYIHVGNIIKNESEAIIKRLRPLLQMRLRFITHLNLEDIHTEKINDNTSNNAITSQTQSPMQTQHQQQPQQPHQQQQQQQQQQQQQQQQQQQQQQMQQQQINAVQTTSVPLGSGGNLQQQQQINQQQQMYMQHMQQHQHMQNMRHN
B3: Med6 (endogenous, S2R+ nuclear fraction) (protein, UniProt Q8MSX2 1-249)
chain: MASRQMTNDHLRLSWHDTQMMATLSPQTVMDYFCRKSNPFYDHMCNNETVRMQRLGPEHLHNMIGLEYILLHVAEPILYVIRKQHRHNPSEATPIADYYIIGGTVYKAPDLANVINSRILNTVVNLQSAFEEASSYARYHPNKGYTWDFSSNKVFSDRSKSDKKDANSAKDENSGTLFQKQRVDMLLAELLRKFPPPIPPMLQNLQQPPPAGDDLNTARNASEMNNATGPLDIKTEGVDMKPPPEKKSK

Each binder was assayed against Moesin-GFP (Drosophila melanogaster) (UniProt P46150) (assay: affinity purification with mass spectrometry; nuclear protein fraction of S2R+ cells expressing Moesin-GFP or Moesin-HA; anti-GFP or anti-HA antibody-coupled magnetic beads; on-column trypsin digest, LC-MS/MS; score from six experiments (three for each tag)).
In the case of B1, the binding is reported as “binds”.
In the case of B2, the binding is reported as “binds”.
In the case of B3, the binding is reported as “binds”.

These binders were tested against Moesin-HA (Drosophila melanogaster) (UniProt P46150) in the same assay as above.
With B1 the binding was “binds”.
In the case of B2, the binding is reported as “binds”.
With B3 the binding was “binds”.
